Most values lie at the floor of the assay. Slopes are relative: functional sequences can read slightly below zero.
The substances below were run on Saccharomyces cerevisiae PS128 hsf1 delta, HSF1(1-493) fusion (assay: growth estimate (transactivation domain function in HSF1 fusion, heat-shock survival) (a.u. (slope of normalised read count over time)); higher = stronger growth at 37°C, i.e. more transactivation activity). Details: library: random library.

Substance	growth estimate
CWGRNLWGLRGSLPHAYRGH	< -0.25
PAHHRITQAGSLSDGIGRMI	< -0.25
CMDFVDCKGTC	< -0.25
HKWYGAFGR	< -0.25
DRTINCRSVPRVELSLVVGA	< -0.25
PIIVRTWARSHGQEQGERCA	< -0.25
VLRT	< -0.25
GIHGLGAAIAPFKCLNDWET	< -0.25
RSLAQTSRYAQLPQSTSVTI	< -0.25
ISLSPCAT	< -0.25
QLVASDELVVLGPTTTPTRR	< -0.25
SPLPGCLRNAPGNR	< -0.25
SWYPG	< -0.25
GRGTCGRKIFNVPGSVDI	< -0.25
RHVDLVPRAVHYHREGHYDR	< -0.25
EICGYTRRQRNLAREGPKAS	< -0.25
PIPR	< -0.25
ADKGERYLYDMVSVAGLNCG	< -0.25
IDRGFGSALCGGAYLGINYS	< -0.25
YQVHIPTQLRYRTVGQRLIC	< -0.25
SLVRPSKATEFKLSCITFSV	< -0.25
RTATQCRYALYILGQKCERH	< -0.25
MPNTKYWRIGPAKV	< -0.25
RVGI	< -0.25
DGSTLEAKTCVAVRLAFVAS	< -0.25

An excerpt of these results, bar-delimited.
Substance | growth estimate
SLVRPSKATEFKLSCITFSV | < -0.25
RTATQCRYALYILGQKCERH | < -0.25

(listing goes on)

Substance	growth estimate
LIDHDWPAPEDACD	< -0.25
HRHSGH	< -0.25
KARGGQNAP	< -0.25
GGAVGLLRWQSSYKFLLLTQ	< -0.25
KMMYAASRIGDMEATIRFQC	< -0.25
CLRNAEASCVSVKCRGDRRF	< -0.25
SRCREGA	< -0.25
ATQLSTVEHTN	< -0.25
FKLSLWINMAYRVQRFHMRS	-0.245
YPGKSSK	< -0.25
EVFNGRTRSWCCLGPVPSGY	< -0.25
YNWFSTVNQGASLTMRAEWA	< -0.25
TYSAPQHGYHVKYGYQRRCR	< -0.25
LTWCISVVV	< -0.25
HPYGQATFTHNRPRSSSRR	< -0.25
YKFHEGSR	-0.241
LSSLLGRRTSRFPYGMF	< -0.25
NEVTSSYRCHLPAGHRCEEN	< -0.25
APSDSLRGS	< -0.25
QASIC	< -0.25
ACLGRGRSRSGLYA	< -0.25
RSTVLRNTRWGHTG	< -0.25
QVHALQAISPDGALDPGPPV	< -0.25
RLKPASGADPIVAAHGSVST	< -0.25
GLGQGTTCGCPLSTCGSEA	< -0.25

Substance	growth estimate
SGWRSTAGVEN	< -0.25
KRVKLDTARGMSASRRPGVA	< -0.25
LTRREDITGGRVGVWGW	< -0.25
RPHNEPFFRAWWGGFGSG	< -0.25
MVRARCQRG	< -0.25
DGVLRQVCSAIVVCFPSA	< -0.25
LRPGTRGQELAGQRARVLGA	< -0.25
FVGTWAGPRPIVEPSICSDC	< -0.25
ATRFEPVPLPRKPIIRPLSV	< -0.25
QEYRPISMCVLW	< -0.25
YSKCDPGLCHLSSSEQLRVE	< -0.25
ARASRKEGLNSMVL	< -0.25
DDLSEVVPSL	< -0.25
RVDI	< -0.25
RERRGRPGRVQRGEGLNGFT	< -0.25
KIIGQDLVIEVR	< -0.25
GDNAPREASYFWCVRIFRLP	< -0.25
CDSKGPRL	< -0.25
GGWTTVRGGTCLPSFSQRIV	< -0.25
LPMIEWGVL	< -0.25
LLWVEEAQLGRCDRAKCLVH	< -0.251
GVVPFGNP	< -0.25
ADLCPGRFSSSLALFSASRS	< -0.25
PVVSSYRGRRSAISQIVSTR	< -0.25
CSSVTDRYEQGRT	< -0.25

Substance	growth estimate
VRLRG	< -0.25
VVLIVIMGVAARRCIRNERR	< -0.25
PGAGVASTGRIGTPASRGWP	< -0.25
GCPRRLVQEYFSAKSLEIRL	< -0.25
VLSGDRCSYARTSLIIQFRT	< -0.25
VWEKSIAYCRWKLIRRATRR	< -0.25
LLSRGKECTAGLV	< -0.25
DVNRSNFGNRRGLWPRTLSR	< -0.25
IVKSKAVII	< -0.25
PILGGRASYGLRYLLFPNAR	< -0.25
GMGHISVLEPIDTIYIISCH	< -0.25
ILVTAAPNAA	< -0.25
IWDQICEAAREAVT	< -0.25
NSAVHRLGTDRHFLA	< -0.25
AFTRVEEY	< -0.25
QGRVCVVSLRRSLFRFDGPP	< -0.25
VLGSVGRAESHRNTRRRLCG	< -0.25
GTLGTT	< -0.25
ANGRSYQGLFQVALLF	< -0.25
GWVSLTRHTGLAL	< -0.25
FVLAIVFWVATGSVNRDTFY	< -0.25
WGHVVHLTFNKFIILPLSPS	< -0.25
SLYTRAQYSDEGASVQPRWG	< -0.25
RSGTTARWDKS	< -0.25
FYA	< -0.25

Some of the entries above, set out differently:
Substance,growth estimate
AFTRVEEY,< -0.25
QGRVCVVSLRRSLFRFDGPP,< -0.25
GTLGTT,< -0.25

Next part:

Substance	growth estimate
HVLFVIFNREPRLGDEKRIG	< -0.25
GKNS	< -0.25
LLLAFHI	< -0.25
SYRSMALGTKEGLMEQ	< -0.25
EGNDHSCATLGVGGSQPCSL	< -0.25
QQDN	< -0.25
AEYTTYLDLSSRFLASGLTR	< -0.25
RVGHPVSPHGEFKPPPEEIR	< -0.25
AEMQEPSSCSFPMQRVVLSF	< -0.25
KVELK	< -0.25
AHHQGGAGQNCVGSGCSAIR	-0.237
GKLHTSVSDYKTNVPGGHQT	< -0.25
GSLRCALTSFKTVTHSRS	< -0.25
DTRCRKPKRLAKKLGIAYHT	< -0.25
GPSLGRECGVILSITQSIIC	< -0.25
RNQVPKP	< -0.25
WMYSDSTPSGTETVFLYEDA	< -0.25
YPPYQEGVPI	< -0.25
RHLPTRRLFSRAS	< -0.25
SSVHMGL	< -0.25
AAGSQYPIVRRCLRPR	< -0.25
RSWVSF	< -0.25
KGYCIRGKSRSTRTRARCIF	< -0.25
KPGSAPGIFVNKLRYVCALM	< -0.25
FGGLHMRTCFRNFFLPFSVG	< -0.25

Substance	growth estimate
FRTPWEVSRRFPRLFELITF	< -0.25
LVTGSRN	< -0.25
RIRIEGRIVLDDLNSSALRY	< -0.25
YTRCYLQHY	< -0.25
IRGTHLDIECRRQEFRLPVR	< -0.25
EGGYNGLVRR	< -0.25
FSTRVTVSGFQILTAIRVW	< -0.25
LARGRAIIRQSYSSPLAR	< -0.25
AWSKFRTHEKSPPSHCCNIL	< -0.25
DRYCI	< -0.25
AGWLDLQPGLSRLTPVADPV	< -0.25
RASKESIEMGVADWGDILVR	< -0.25
AIVCD	< -0.25
RKPGSPVRR	< -0.25
FGLSGPFRLEVIYAKFSMEL	< -0.25
LTWSTVSPR	< -0.25
RGGGPVIRYRNRRKSQLVDL	< -0.25
FNSTT	< -0.25
DRGITVVHFR	< -0.25
TDAREI	< -0.25
LREGLLEV	< -0.25
TQIIFGNILFTDHALHRFRG	< -0.25
YTS	< -0.25
GSSI	< -0.25
SNRPLTWERLSCYVSGEKPG	-0.0941

Substance	growth estimate
DRTLATSNPSFRAIRELPTA	< -0.25
SASQQRRFKPSEMVRHISSG	< -0.25
RSSLCISRSQSNDQTCFRVH	< -0.25
CDVPTISERTRLQSRHHVYV	< -0.25
TRDVLVEPPDAISIVAQPVH	< -0.25
CACQFVREGPQSKSICSLST	< -0.25
SYKAPHQHSPHSAL	< -0.25
VGCAQLIYYEAL	< -0.25
EPGLVHRGMAQL	< -0.25
SDGTYQPDLVIWELDGSGSR	< -0.25
LVPRITVLGR	< -0.25
PAGLVHGAKQLVASSMIMPA	< -0.25
DLCGISGWSEGQVG	< -0.25
GRWEKVKIEKGEP	< -0.25
NEIH	< -0.25
RHERPKRSGRTFCIHGESRT	< -0.25
VGTNASADG	< -0.25
MLYVYMSILSEESTNVRGTR	< -0.25
RTLIVE	< -0.25
FQNRIDGVYFFGSSKD	< -0.25
AAWLPDTDPMGLAQIGSYAR	< -0.25
STAGPPSY	< -0.25
RWI	< -0.25
VGPWLGNPLCHAHAGIAPYA	< -0.25
EHTSPSIWLSLS	< -0.25

Substance	growth estimate
ICLSFLRRSGAASRNVAR	-0.243
TPDWYSCYKDAGSFGLTSRR	< -0.25
MTLNKYEFISQKHIISGFSR	< -0.25
SHLDVQVGRTLVVPLKLPDQ	< -0.25
LLMHGQLRIGSRLYNQEEGG	< -0.25
RDVKEFVWGVLFPTTKQIRR	< -0.25
LSIRWSRTYLTKCT	< -0.25
EFLGTHRP	< -0.25
AYRRLKRLD	< -0.25
RQLNHR	< -0.25
TSTLEVWAKNRNISN	< -0.25
ERGRSGRCSVRCS	< -0.25
PLLGSSSRTQVGPL	< -0.25
YKTECLNTGWLRDRYLQFKP	< -0.25
VLVLVLRNDTGKYGGSILMQ	< -0.25
HVSDNRMAVLCLTQLVFRTT	< -0.25
QQPWQSEHTSRGINNLIHRP	< -0.25
SCGTESYPARDHRHRQC	< -0.25
SRAVGGSSCRVNKAL	< -0.25
SMYLHA	< -0.25
MERQIIIRRPSGVTEYPSLE	< -0.25
TGRA	< -0.25
